Values from PubChem BioAssay AID1671195 (Yale University, 2021).
The deposit covers about 22,000 reagents; below is an unselected part. In the full data, about 1,510 (6.9%) are marked active. 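Active includes knockdowns raising or lowering LDL uptake; positive z-scores mean more uptake, negative mean less.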 Reagents against one gene are numbered here. Reagent sequences are not shown.

Aim: 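Regulators of LDL receptor activity judged by labelled LDL uptake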 (primary screen)
Cell system: human Huh7 hepatoma cells
Knock-down reagent: siRNA pool against human genes, 18 nM
Time to read-out: about 2 to 2.5 days of knockdown, then 8 h LDL uptake
Conditions: DiI-labelled LDL at 30 µg/ml for 8 h, in lipoprotein-deficient serum medium
Measured: 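Fluorescent LDL signal imaged in cells, scaled to the plate median, robust z-score for each replicate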
Direction: robust z-score: higher = more LDL uptake after knockdown
Rule for the call: 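a gene counts as active if at least two replicate z-scores exceed ±2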

The first 4 records, to show the layout:
gene | pool no. | robust z-score, replicate 1 | robust z-score, replicate 2 | robust z-score, replicate 3 | activity call
CDKL5 (cyclin dependent kinase like 5) | 1 | 0.708 | 0.344 | 1.27 | inactive
C19orf12 (chromosome 19 open reading frame 12) | 1 | 0.32 | 0.404 | 0.681 | inactive
SRBD1 (S1 RNA binding domain 1) | 1 | -0.367 | 0.922 | -0.447 | inactive
FCRL2 (Fc receptor like 2) | 1 | -1.23 | -0.0533 | -1.06 | inactive

The list itself, repeating the preview:
gene | pool no. | robust z-score, replicate 1 | robust z-score, replicate 2 | robust z-score, replicate 3 | activity call
CDKL5 (cyclin dependent kinase like 5) | 1 | 0.708 | 0.344 | 1.27 | inactive
C19orf12 (chromosome 19 open reading frame 12) | 1 | 0.32 | 0.404 | 0.681 | inactive
SRBD1 (S1 RNA binding domain 1) | 1 | -0.367 | 0.922 | -0.447 | inactive
FCRL2 (Fc receptor like 2) | 1 | -1.23 | -0.0533 | -1.06 | inactive
OR10V1 (olfactory receptor family 10 subfamily V member 1) | 1 | -0.288 | -0.16 | 0.0792 | inactive
CHTF8 (chromosome transmission fidelity factor 8) | 1 | -1.49 | -0.833 | -0.726 | inactive
LOC389095 (retired record) | 1 | 0.152 | -0.0506 | -0.0962 | inactive
TINF2 (TERF1 interacting nuclear factor 2) | 1 | -0.443 | -0.872 | -0.637 | inactive
LINC01142 (long independently transcribed non-coding RNA 1142) | 1 | -2.45 | -2.29 | -2.34 | active
VAX2 (ventral anterior homeobox 2) | 1 | 1.27 | 0.398 | -0.129 | inactive
SLC20A1 | 1 | 0.489 | 1.72 | 2.11 | inactive
CNTNAP1 (contactin associated protein 1) | 1 | 0.703 | 1.03 | 0.748 | inactive
NGF (nerve growth factor) | 1 | -0.0815 | -0.251 | 0.208 | inactive
RABGGTA (Rab geranylgeranyltransferase subunit alpha) | 1 | -0.226 | -0.403 | -0.11 | inactive
PREX2 | 1 | 0.354 | 0.54 | -0.0062 | inactive
KIF20B (kinesin family member 20B) | 1 | -0.853 | 0.81 | 0.383 | inactive
ATP8B2 (ATPase phospholipid transporting 8B2) | 1 | -0.0256 | 0.518 | -0.242 | inactive
ATP13A5 (ATPase 13A5) | 1 | 0.571 | 0.0258 | 0.191 | inactive
IGSF5 (immunoglobulin superfamily member 5) | 1 | 0.653 | 0.383 | 0.121 | inactive
FAM133B (family with sequence similarity 133 member B) | 1 | 0.747 | 0.926 | 0.774 | inactive
PCDH15 (protocadherin related 15) | 1 | 0.368 | 0.8 | 1.12 | inactive
PCDH15 (protocadherin related 15) | 2 | -0.0837 | -0.126 | 0.0842 | inactive
ARPC5 (actin related protein 2/3 complex subunit 5) | 1 | -0.0179 | 0.0748 | -0.865 | inactive
TENT5B (terminal nucleotidyltransferase 5B) | 1 | -0.0204 | 1.68 | 1.54 | inactive
LOC387871 (retired record) | 1 | 4.04 | 3.02 | 3.69 | active
LOC442397 (retired record) | 1 | -1.23 | -1.07 | -0.603 | inactive
LEFTY2 (left-right determination factor 2) | 1 | -0.707 | -0.826 | 0.0361 | inactive
RPAIN (RPA interacting protein) | 1 | -0.719 | -0.877 | -1.16 | inactive
LOC391667 (retired record) | 1 | 1.08 | 1.08 | 1.3 | inactive
GLS (glutaminase) | 1 | -0.937 | -0.741 | -0.822 | inactive
LOC440785 (retired record) | 1 | -0.76 | -0.597 | -1.11 | inactive
CHRD (chordin) | 1 | 1.51 | -0.0377 | 0.616 | inactive
RNF150 (ring finger protein 150) | 1 | 4 | 3.37 | 4.11 | active
PPP1R13B (protein phosphatase 1 regulatory subunit 13B) | 1 | 0.527 | 0.763 | 0.608 | inactive
ALS2 (alsin Rho guanine nucleotide exchange factor ALS2) | 1 | -0.753 | -0.156 | -0.379 | inactive
UBXN4 (UBX domain protein 4) | 1 | 0.0596 | -0.924 | 0.00939 | inactive
LUC7L3 (LUC7 like 3 pre-mRNA splicing factor) | 1 | 0.691 | 0.635 | 0.397 | inactive
ZNF268 (zinc finger protein 268) | 1 | -0.979 | -0.472 | -1.1 | inactive
KLK10 (kallikrein related peptidase 10) | 1 | -0.643 | -0.807 | -0.885 | inactive
EVPLL (envoplakin like) | 1 | 0.234 | 0.233 | 0.325 | inactive
CXCR6 (C-X-C motif chemokine receptor 6) | 1 | 0.301 | -0.488 | 1.22 | inactive
COMT (catechol-O-methyltransferase) | 1 | -0.43 | -0.546 | -0.0294 | inactive
OR6C65 (olfactory receptor family 6 subfamily C member 65) | 1 | -1.25 | -1.79 | -2.14 | inactive
PCDH8 (protocadherin 8) | 1 | 0.756 | 0.229 | 0.336 | inactive
PNPT1 (polyribonucleotide nucleotidyltransferase 1) | 1 | 0.00827 | 0.0729 | 0.737 | inactive
MUC3B (mucin 3B, cell surface associated) | 1 | 0.89 | 0.381 | 1.12 | inactive
